Test results: article PMC7205606, “Characterization of a toxin-antitoxin system in Mycobacterium tuberculosis suggests neutralization by phosphorylation as the antitoxicity mechanism” (Communications Biology, 2020)
Results are given in words; binding and its absence hold for the method and conditions named. In cells and extracts the contact can be indirect. Some binding calls cover weakened binding; strength is not graded here. Tags and fused reporters may be left off the sequences shown.

Target: T1, TakA with C-terminal Myc-tag and C-terminal His-tag (TakA-Myc-His) (Mycobacterium tuberculosis H37Rv) (UniProt P96357)
T1 sequence: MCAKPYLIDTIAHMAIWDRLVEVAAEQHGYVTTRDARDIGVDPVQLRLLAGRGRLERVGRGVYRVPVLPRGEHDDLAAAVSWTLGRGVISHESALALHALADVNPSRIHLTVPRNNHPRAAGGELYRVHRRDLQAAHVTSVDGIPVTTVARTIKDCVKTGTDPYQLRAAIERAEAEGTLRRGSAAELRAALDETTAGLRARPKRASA
Assay: co-IP

Substance: TglT with a C-terminal FLAG-tag (TglT-FLAG) (from UniProt P96356 1-293)
- binding: binds
